PubChem BioAssay AID1053208 | Peter MacCallum Cancer Centre | 2014
Shown is an unselected part of about 17,000 reagents tested. Of all reagents, 788 (4.7%) were called active. 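Calls rest on z-score classes alone; an extra cut-off of viability at most 70% of control was not applied to them.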 A number with no mark means an inactive call. The numbers tell different reagents against one gene apart. Not all columns of the deposit are shown. No sequences are given here.

Test: 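Genes whose silencing cuts survival of bone tumour cells only with doxorubicin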 (primary screen)
Cell system: mouse osteosarcoma cells, early-passage culture from an engineered mouse model of fibroblastic bone tumour
Reagent: siRNA pool against mouse genes, 40 nM
Time to read-out: about 120 h (48 h before drug, then 72 h with drug)
Treatment: doxorubicin 100 nM for 72 h, roughly 30-40% inhibitory dose
Read-out: 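Luminescent ATP signal taken as viability with or without 100 nM doxorubicin for 72 h; mean of two wells set against non-targeting siRNA and turned into robust z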
Scale: viability z-score with doxorubicin: higher = more viable cells under doxorubicin; viability z-score without drug: higher = more viable cells with knock-down alone
Call rule: 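a pool counts as active when its viability z-score with doxorubicin is -2 or below and its z-score without drug lies between -2 and 2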

{"gene symbol": "Baz1b", "reagent no.": 1, "combined z-score class": "no change with or without drug", "viability z-score with doxorubicin": 1.57, "viability z-score without drug": -0.51}
{"gene symbol": "Acsl3", "reagent no.": 1, "combined z-score class": "no change with or without drug", "viability z-score with doxorubicin": 0.22, "viability z-score without drug": -0.51}
{"gene symbol": "Smtn", "reagent no.": 1, "combined z-score class": "no change with or without drug", "viability z-score with doxorubicin": -0.22, "viability z-score without drug": -0.17}
{"gene symbol": "Triml1", "reagent no.": 1, "combined z-score class": "no change with or without drug", "viability z-score with doxorubicin": 0.34, "viability z-score without drug": -0.17}
{"gene symbol": "C1qtnf5", "reagent no.": 1, "combined z-score class": "no change with or without drug", "viability z-score with doxorubicin": 0, "viability z-score without drug": 1.01}
{"gene symbol": "Setd1a", "reagent no.": 1, "combined z-score class": "no change with or without drug", "viability z-score with doxorubicin": 0.9, "viability z-score without drug": 0.84}
{"gene symbol": "Setd1a", "reagent no.": 2, "combined z-score class": "no change with or without drug", "viability z-score with doxorubicin": 1.01, "viability z-score without drug": 0.51}
{"gene symbol": "Pold1", "reagent no.": 1, "combined z-score class": "no change with or without drug", "viability z-score with doxorubicin": -1.57, "viability z-score without drug": 0}
{"gene symbol": "Dnaaf10", "reagent no.": 1, "combined z-score class": "no change with or without drug", "viability z-score with doxorubicin": -0.56, "viability z-score without drug": -0.67}
{"gene symbol": "Tmsb10", "reagent no.": 1, "combined z-score class": "no change with or without drug", "viability z-score with doxorubicin": 0, "viability z-score without drug": -0.51}
{"gene symbol": "Cdc37l1", "reagent no.": 1, "combined z-score class": "no change with or without drug", "viability z-score with doxorubicin": -1.57, "viability z-score without drug": -0.51}
{"gene symbol": "Sgce", "reagent no.": 1, "combined z-score class": "no change with or without drug", "viability z-score with doxorubicin": -1.35, "viability z-score without drug": -1.85}
{"gene symbol": "Eif2d", "reagent no.": 1, "combined z-score class": "no change with or without drug", "viability z-score with doxorubicin": -0.22, "viability z-score without drug": 1.18}
{"gene symbol": "Dhx35", "reagent no.": 1, "combined z-score class": "no change with or without drug", "viability z-score with doxorubicin": 1.46, "viability z-score without drug": 0.67}
{"gene symbol": "Klk1b21", "reagent no.": 1, "combined z-score class": "no change with or without drug", "viability z-score with doxorubicin": -0.34, "viability z-score without drug": -0.51}
{"gene symbol": "Sacs", "reagent no.": 1, "combined z-score class": "no change with or without drug", "viability z-score with doxorubicin": -0.11, "viability z-score without drug": 1.35}
{"gene symbol": "Zfp286", "reagent no.": 1, "combined z-score class": "no change with or without drug", "viability z-score with doxorubicin": 0, "viability z-score without drug": -1.18}
{"gene symbol": "Hsd17b12", "reagent no.": 1, "combined z-score class": "no change with or without drug", "viability z-score with doxorubicin": 0.45, "viability z-score without drug": -0.51}
{"gene symbol": "Ero1b", "reagent no.": 1, "combined z-score class": "no change with or without drug", "viability z-score with doxorubicin": -1.12, "viability z-score without drug": 1.85}
{"gene symbol": "Rbm14", "reagent no.": 1, "combined z-score class": "no change with or without drug", "viability z-score with doxorubicin": -0.67, "viability z-score without drug": -0.67}
{"gene symbol": "Gabra5", "reagent no.": 1, "combined z-score class": "no change with or without drug", "viability z-score with doxorubicin": 0.79, "viability z-score without drug": 0.84}
{"gene symbol": "Mycbp", "reagent no.": 1, "combined z-score class": "no change with or without drug", "viability z-score with doxorubicin": -0.67, "viability z-score without drug": -1.18}
{"gene symbol": "Gpr75", "reagent no.": 1, "combined z-score class": "no change with or without drug", "viability z-score with doxorubicin": 0.45, "viability z-score without drug": 0.17}
{"gene symbol": "Ppt1", "reagent no.": 1, "combined z-score class": "no change with or without drug", "viability z-score with doxorubicin": 0.67, "viability z-score without drug": 1.35}
{"gene symbol": "Ppt1", "reagent no.": 2, "combined z-score class": "no change with or without drug", "viability z-score with doxorubicin": 0, "viability z-score without drug": -0.51}
{"gene symbol": "Pcnx4", "reagent no.": 1, "combined z-score class": "no change with or without drug", "viability z-score with doxorubicin": -1.8, "viability z-score without drug": 0.17}
{"gene symbol": "Pkd1l3", "reagent no.": 1, "combined z-score class": "no change with or without drug", "viability z-score with doxorubicin": 1.57, "viability z-score without drug": -0.17}
{"gene symbol": "Gnb1l", "reagent no.": 1, "combined z-score class": "no change with or without drug", "viability z-score with doxorubicin": -0.9, "viability z-score without drug": -1.18}
{"gene symbol": "Lce3c", "reagent no.": 1, "combined z-score class": "no change with or without drug", "viability z-score with doxorubicin": 0.79, "viability z-score without drug": 0.51}
{"gene symbol": "Mia", "reagent no.": 1, "combined z-score class": "no change with or without drug", "viability z-score with doxorubicin": -0.45, "viability z-score without drug": 1.35}
{"gene symbol": "Clk1", "reagent no.": 1, "combined z-score class": "no change with or without drug", "viability z-score with doxorubicin": -0.22, "viability z-score without drug": -0.67}
{"gene symbol": "Ccn4", "reagent no.": 1, "combined z-score class": "no change with or without drug", "viability z-score with doxorubicin": 0.67, "viability z-score without drug": -0.17}
{"gene symbol": "Pik3ip1", "reagent no.": 1, "combined z-score class": "no change with or without drug", "viability z-score with doxorubicin": 1.01, "viability z-score without drug": -0.17}
{"gene symbol": "Hnf4aos", "reagent no.": 1, "combined z-score class": "high cell count without drug only", "viability z-score with doxorubicin": 1.24, "viability z-score without drug": 2.02}
{"gene symbol": "Rptn", "reagent no.": 1, "combined z-score class": "no change with or without drug", "viability z-score with doxorubicin": 1.8, "viability z-score without drug": 0.34}
{"gene symbol": "Zp3r", "reagent no.": 1, "combined z-score class": "no change with or without drug", "viability z-score with doxorubicin": -0.45, "viability z-score without drug": -1.85}
